Measurements: PMC11818545
These are yes or no findings as the source states them, for the method shown. In cells and extracts the contact can be indirect. Some binding calls cover weakened binding; strength is not graded here.

The chains behind the UniProt entries cited, without tags or fusion partners.
UniProt P09528: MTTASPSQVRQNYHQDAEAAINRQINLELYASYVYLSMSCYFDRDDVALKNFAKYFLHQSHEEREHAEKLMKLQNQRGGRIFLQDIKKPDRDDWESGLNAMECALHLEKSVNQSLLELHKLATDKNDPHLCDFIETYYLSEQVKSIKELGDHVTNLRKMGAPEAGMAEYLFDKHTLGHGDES
UniProt Q9CUN6: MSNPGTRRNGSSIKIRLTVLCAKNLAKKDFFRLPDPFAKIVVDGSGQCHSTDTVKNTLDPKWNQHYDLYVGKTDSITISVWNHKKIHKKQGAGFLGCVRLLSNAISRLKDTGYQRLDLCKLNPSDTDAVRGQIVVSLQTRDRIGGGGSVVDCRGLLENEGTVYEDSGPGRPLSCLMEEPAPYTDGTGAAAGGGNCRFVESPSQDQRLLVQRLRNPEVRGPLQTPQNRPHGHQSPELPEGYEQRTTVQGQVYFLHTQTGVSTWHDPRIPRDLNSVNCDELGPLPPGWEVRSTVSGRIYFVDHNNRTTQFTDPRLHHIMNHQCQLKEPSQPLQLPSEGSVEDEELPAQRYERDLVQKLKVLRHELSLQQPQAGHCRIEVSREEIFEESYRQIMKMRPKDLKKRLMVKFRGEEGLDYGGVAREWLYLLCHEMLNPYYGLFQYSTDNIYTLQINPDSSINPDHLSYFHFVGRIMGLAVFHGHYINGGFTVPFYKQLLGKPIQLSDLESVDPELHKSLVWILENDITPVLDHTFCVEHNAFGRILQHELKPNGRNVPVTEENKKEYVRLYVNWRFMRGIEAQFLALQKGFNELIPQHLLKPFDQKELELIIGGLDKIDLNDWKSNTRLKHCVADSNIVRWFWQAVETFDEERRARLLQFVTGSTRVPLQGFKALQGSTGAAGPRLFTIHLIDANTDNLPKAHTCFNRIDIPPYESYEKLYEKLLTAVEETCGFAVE

How the values were obtained:
[1] = molecular target: Ferritin heavy chain 1 (FTH1), endogenous in mouse primary myoblasts (mouse (endogenous in primary myoblasts)) (UniProt P09528); experiment: co-IP; reciprocal co-immunoprecipitation of endogenous proteins with SMURF1 or FTH1 antibody or control IgG, protein A/G plus-agarose, lysate of primary myoblasts cultured 4 days in differentiation medium, immunoblot
[2] = molecular target: Flag-tagged FTH1 expressed in HEK293T cells (mouse) (UniProt P09528); experiment: co-IP; reciprocal co-immunoprecipitation of GFP-tagged SMURF1 and Flag-tagged FTH1 in HEK293T cells, immunoblot

| binding [1] | binding [2] | Substance |
| --- | --- | --- |
| binds | – | E3 ubiquitin-protein ligase SMURF1, endogenous in mouse primary myoblasts (from UniProt Q9CUN6 1-731) (enzyme) |
| – | binds | GFP-tagged SMURF1 expressed in HEK293T cells (from UniProt Q9CUN6 1-731) (enzyme) |
